These are yes or no findings as the source states them, for the method shown. Binding seen in cells or lysates may run through a third protein. Some binding calls cover weakened binding; strength is not graded here. Tags and fused reporters may be left off the sequences shown.
Target: GFP-PCM1 (human) (UniProt Q15154)
Assay: co-IP

Protein sequences, listed by entry. Tags and fused reporters are not part of them.
UniProt Q15154: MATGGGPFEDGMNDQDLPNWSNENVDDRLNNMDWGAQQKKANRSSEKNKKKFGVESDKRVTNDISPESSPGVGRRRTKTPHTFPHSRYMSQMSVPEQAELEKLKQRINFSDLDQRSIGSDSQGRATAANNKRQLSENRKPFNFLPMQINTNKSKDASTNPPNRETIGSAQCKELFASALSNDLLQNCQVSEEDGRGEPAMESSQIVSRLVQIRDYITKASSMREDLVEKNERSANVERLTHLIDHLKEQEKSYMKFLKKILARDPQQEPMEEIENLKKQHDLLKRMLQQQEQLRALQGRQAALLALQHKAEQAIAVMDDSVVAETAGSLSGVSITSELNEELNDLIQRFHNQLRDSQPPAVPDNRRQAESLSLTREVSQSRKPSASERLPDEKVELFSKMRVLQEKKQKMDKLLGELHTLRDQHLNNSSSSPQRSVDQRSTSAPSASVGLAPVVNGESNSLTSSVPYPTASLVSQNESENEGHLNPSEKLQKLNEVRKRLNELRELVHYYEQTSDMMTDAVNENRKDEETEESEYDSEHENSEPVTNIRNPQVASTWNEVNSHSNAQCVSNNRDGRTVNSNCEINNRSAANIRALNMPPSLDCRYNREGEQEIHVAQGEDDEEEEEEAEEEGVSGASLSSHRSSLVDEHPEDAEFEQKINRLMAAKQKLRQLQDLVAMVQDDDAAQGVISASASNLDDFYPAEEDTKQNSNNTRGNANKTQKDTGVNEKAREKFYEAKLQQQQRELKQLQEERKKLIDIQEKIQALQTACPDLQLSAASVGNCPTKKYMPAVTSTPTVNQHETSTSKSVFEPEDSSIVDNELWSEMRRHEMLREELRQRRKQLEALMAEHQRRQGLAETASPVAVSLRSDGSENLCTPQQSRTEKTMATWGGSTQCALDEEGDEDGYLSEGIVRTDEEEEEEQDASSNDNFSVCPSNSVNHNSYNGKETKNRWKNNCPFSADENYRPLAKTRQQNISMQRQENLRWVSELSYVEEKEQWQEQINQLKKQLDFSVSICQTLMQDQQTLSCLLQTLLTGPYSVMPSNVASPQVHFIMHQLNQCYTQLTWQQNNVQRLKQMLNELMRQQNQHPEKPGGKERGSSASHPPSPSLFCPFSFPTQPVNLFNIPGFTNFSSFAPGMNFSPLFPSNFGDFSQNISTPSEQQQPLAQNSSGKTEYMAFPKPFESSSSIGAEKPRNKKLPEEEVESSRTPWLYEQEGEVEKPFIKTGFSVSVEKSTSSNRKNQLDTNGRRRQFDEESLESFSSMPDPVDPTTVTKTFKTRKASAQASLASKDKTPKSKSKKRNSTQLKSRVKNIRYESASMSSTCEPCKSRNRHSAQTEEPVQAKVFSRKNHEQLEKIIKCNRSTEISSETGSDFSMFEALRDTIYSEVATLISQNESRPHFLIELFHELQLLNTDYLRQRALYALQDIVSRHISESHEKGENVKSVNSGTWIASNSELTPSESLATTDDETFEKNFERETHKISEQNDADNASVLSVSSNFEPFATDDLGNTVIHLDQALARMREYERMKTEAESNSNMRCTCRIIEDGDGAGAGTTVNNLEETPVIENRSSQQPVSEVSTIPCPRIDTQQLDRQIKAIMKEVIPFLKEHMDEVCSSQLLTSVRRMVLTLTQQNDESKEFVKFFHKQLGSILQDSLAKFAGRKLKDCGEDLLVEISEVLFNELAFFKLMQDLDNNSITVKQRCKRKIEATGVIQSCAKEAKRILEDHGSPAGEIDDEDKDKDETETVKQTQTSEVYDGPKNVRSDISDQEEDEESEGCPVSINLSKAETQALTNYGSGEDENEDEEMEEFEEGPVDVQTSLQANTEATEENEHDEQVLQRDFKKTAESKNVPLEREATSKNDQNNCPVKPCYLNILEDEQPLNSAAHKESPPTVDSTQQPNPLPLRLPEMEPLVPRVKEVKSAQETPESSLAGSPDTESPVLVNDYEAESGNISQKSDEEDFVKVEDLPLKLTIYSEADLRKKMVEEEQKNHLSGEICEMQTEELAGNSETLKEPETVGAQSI

binding: binds
B1: Flag-BirA*-AURKA (Aurora kinase A) (enzyme, UniProt O14965 1-403)
chain: MDRSKENCISGPVKATAPVGGPKRVLVTQQFPCQNPLPVNSGQAQRVLCPSNSSQRIPLQAQKLVSSHKPVQNQKQKQLQATSVPHPVSRPLNNTQKSKQPLPSAPENNPEEELASKQKNEESKKRQWALEDFEIGRPLGKGKFGNVYLAREKQSKFILALKVLFKAQLEKAGVEHQLRREVEIQSHLRHPNILRLYGYFHDATRVYLILEYAPLGTVYRELQKLSKFDEQRTATYITELANALSYCHSKRVIHRDIKPENLLLGSAGELKIADFGWSVHAPSSRRTTLCGTLDYLPPEMIEGRMHDEKVDLWSLGVLCYEFLVGKPPFEANTYQETYKRISRVEFTFPDFVTEGARDLISRLLKHNPSQRPMLREVLEHPWITANSSKPSNCQNKESASKQS
